# Results from one PubChem assay

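Luminescence from an EWS-FLI1 target-promoter (NR0B1) reporter, set against a CMV-promoter reporter, two days after silencing single genes in TC32 Ewing sarcoma cells. Each siRNA was applied at 20 nM. A z-score of the log NR0B1-over-CMV signal, less the median of siRNAs with the same seed; more negative means a stronger specific loss of the NR0B1 reporter.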

The strongest results of the screen are mostly left out here. Sequences are the guide (antisense) strand, without overhang.

* GCUAGUGUAGCCAUCAUCU against C1RL-AS1 : seed-corrected z-score 0.3379
* UCAUUGAUGAGAGUGAUCU against CDH23 : seed-corrected z-score 0.466
* AGAGUUGUAAAACCUAGAG against MUC16 : seed-corrected z-score 0.4817
* UUUGUAGCCUCAGCAUUCG against SLC9A5 : seed-corrected z-score -0.05118
* UGCAGUUUCCGAGUCAGUG against IGF2BP3 : seed-corrected z-score -0.1183
* AAACUUUUUGGACUCCCGG against RPS16P1 : seed-corrected z-score 1.226
* UAGUCUAACUGCAUCAUGC against KRTAP4-1 : seed-corrected z-score 1.676
* UAAUGAUAAAUUCCGAUUC against CDH9 : seed-corrected z-score 0.5085
* UAUGUCGAAGGGAUAGUUC against FRY : seed-corrected z-score 0.4995
* UCUGUUCUCUUGAGUGUCU against CCDC3 : seed-corrected z-score -0.8454
* UUCAAAUUCUGUGAGGAUC against TRIM31 : seed-corrected z-score 0.7432
* UCUGUUUAAUUUCUAACUG against OTUD6B : seed-corrected z-score 0.1313
* UAUCUGUAAUAGUCCUUGU against PLA2G2D : seed-corrected z-score -0.197
* UGCUGUAACCCAAUCACCC against TRIM6 : seed-corrected z-score 0.1485
* UCAGUGAUGUUAUCCAGGC against AIM2 : seed-corrected z-score -0.2685
* UGAAGGUUCCCAGCUGUUC against PPP2R1A : seed-corrected z-score -0.2585
* UGCUUGUCAAGCUUGUAGC against EIF3B : seed-corrected z-score 1.023
* UUCUCGUUCCGGUCCUUGC against RXRA : seed-corrected z-score 0.2208
* UUCGUAUCUUUUGCGAAGC against CCDC146 : seed-corrected z-score -0.222
* UUUGUCUCGAAUGCACCGC against KIZ : seed-corrected z-score 1.552
* AAGGCUAUGAAAGUCCUCC against IL26 : seed-corrected z-score -1.117
* UCUUUUCGAAGGCUUAUUC against ACTG1 : seed-corrected z-score -0.9352
* UUCUUGACCUACUAAAGGC against ZNF721 : seed-corrected z-score -0.909
* ACACUUGAUGGUUACAUCC against FAM69B : seed-corrected z-score 1.011
* UAUGGGUAUAGGAAUUACA against MYBL1 : seed-corrected z-score -0.4646
* UCAUCUAAGAGACCUAGGC against ATF4 : seed-corrected z-score -0.05486
* AUACCGACGACUAAAGGUC against ZNF546 : seed-corrected z-score 0.3987
* UGAAUAAACAGGCAUUGGG against POLR2J3 : seed-corrected z-score -1.282
* UGCUUGAUCAAGUCAAUGC against TAS2R1 : seed-corrected z-score 0.4867
* UACGCUUAGUAUGAACUUC against TPR : seed-corrected z-score -0.5484
* AGGGAUGCAAGUUUGAUGG against ISX : seed-corrected z-score 0.01632
* AAAGCUGAACCGGUCUUGG against B4GALNT3 : seed-corrected z-score 0.05059
* UAAAGUAUUCCCUCGGCGU against CAMKMT : seed-corrected z-score 0.05592
* UGGGCAUUUGUAAAUCAGC against ZDHHC11B : seed-corrected z-score -1.034
* UUACAAAUUCGGAAGAGAG against ZNF347 : seed-corrected z-score 1.263
* AACUUUGCUACUGAGCUCC against RAD21L1 : seed-corrected z-score 0.1528
* AAAAGGACUAGAAUCUUCC against CLVS2 : seed-corrected z-score -0.0366
* AAAACUCUUAGGUUUCUGG against TBC1D3P2 : seed-corrected z-score 0.3996
* UAGGUAACUACAAAAACAC against TSEN34 : seed-corrected z-score 0.7499
* AAGAGCUUAAAAAUCAUCC against APMAP : seed-corrected z-score -0.2292

5 of the entries, repeated:

siRNA,target gene,seed-corrected z-score
UCAGUGAUGUUAUCCAGGC,AIM2,-0.2685
UGCUUGUCAAGCUUGUAGC,EIF3B,1.023
UUUGUCUCGAAUGCACCGC,KIZ,1.552
UGAAGGUUCCCAGCUGUUC,PPP2R1A,-0.2585
UAAUGAUAAAUUCCGAUUC,CDH9,0.5085

From PubChem BioAssay record AID1159506 (NCATS, 2015).